Measurements from paper PMC7568605.
Results are given in words; binding and its absence hold for the method and conditions named. Binding seen in cells or lysates may run through a third protein. Some results given as binding are weak or reduced against the parent protein; the word gives no strength.

Sequences of proteins named here, by UniProt entry; tags and fusion partners are left off. Residues count along the entry.
UniProt O70174, residues 31-629: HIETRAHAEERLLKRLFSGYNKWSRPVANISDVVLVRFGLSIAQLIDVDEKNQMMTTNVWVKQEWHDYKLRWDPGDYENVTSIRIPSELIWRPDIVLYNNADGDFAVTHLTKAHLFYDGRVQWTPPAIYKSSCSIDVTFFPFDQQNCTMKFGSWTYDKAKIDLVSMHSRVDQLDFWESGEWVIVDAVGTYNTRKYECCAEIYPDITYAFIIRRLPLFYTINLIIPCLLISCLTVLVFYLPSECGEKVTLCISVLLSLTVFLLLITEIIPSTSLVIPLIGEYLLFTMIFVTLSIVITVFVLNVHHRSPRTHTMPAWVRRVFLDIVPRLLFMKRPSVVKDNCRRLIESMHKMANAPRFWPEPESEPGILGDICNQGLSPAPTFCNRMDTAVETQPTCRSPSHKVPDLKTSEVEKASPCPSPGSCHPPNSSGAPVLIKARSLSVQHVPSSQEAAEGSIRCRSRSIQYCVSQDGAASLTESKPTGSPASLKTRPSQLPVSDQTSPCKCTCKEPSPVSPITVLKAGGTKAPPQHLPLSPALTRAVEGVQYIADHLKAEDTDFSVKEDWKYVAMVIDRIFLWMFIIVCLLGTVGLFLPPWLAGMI

Target: α6-GFP nAChR subunit (UniProt Q9R0W9)
Assay: FRET or BRET; NFRET (PixFRET ImageJ plug-in) between α6-GFP (excited at 488 nm) and α4-mCherry (561 nm) in 20 μm coronal brain slices (bregma -3.1 mm) of α4-mCherryα6-GFP mice, Leica SP5 confocal; bleedthrough controls from mice with α4-mCherry alone or α6-GFP alone; mice treated with saline or 0.5 mg/kg nicotine in CPP assays

binding: binds
Substance: α4-mCherry nAChR subunit (from UniProt O70174 31-629) (receptor)
